Source: patent US9145382B2, “Organic compound and electrochromic device using the same” (CANON KABUSHIKI KAISHA, priority 2014, dated 2015)

Experiment: Electrochromic device evaluation (transmittance before and after applying voltage)
Settings: 2 volt applied; 75.0 mM each of A-1 and C-1 in propylene carbonate

SMILES	main optical absorption of the colored species in the EC device
COCCOCc1c(-c2c(OC)cccc2OC(C)C)sc(-c2c(OC)cccc2OC(C)C)c1COCCOC [A-1]	around 415 nm
COC(=O)c1ccc(C[n+]2ccc(-c3cc[n+](Cc4ccc(C(=O)OC)cc4)cc3)cc2)cc1 [C-1, reference compound]	around 605 nm
